Where a name gives a salt, the structure may show the parent alone. Some of the results follow. Most values lie within the scatter of the assay; repeated measurements hardly agree.
Target: HuR (ELAVL1) - TNFalpha ARE RNA complex (UniProt Q15717)
Test: AlphaScreen HuR-RNA complex signal Z-score relative to positive (Bi-TNF, DMSO) controls (Z-score (SD units of positive control)); higher = more complex signal
Conditions: screen stage: primary screen; compound concentration: 25 nM

By UniProt entry, the sequences of proteins in these tests, tags left out.
UniProt Q15717, whole entry: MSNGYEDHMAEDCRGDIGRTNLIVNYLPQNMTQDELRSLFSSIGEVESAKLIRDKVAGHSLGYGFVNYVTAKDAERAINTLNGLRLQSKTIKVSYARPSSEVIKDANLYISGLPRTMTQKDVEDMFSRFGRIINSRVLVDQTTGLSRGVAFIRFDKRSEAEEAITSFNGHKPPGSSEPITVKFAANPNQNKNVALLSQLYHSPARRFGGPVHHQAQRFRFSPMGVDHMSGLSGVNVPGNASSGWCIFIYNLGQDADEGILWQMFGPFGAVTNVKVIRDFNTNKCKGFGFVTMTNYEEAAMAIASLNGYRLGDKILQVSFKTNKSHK

Row | Compound | AlphaScreen HuR-RNA complex signal Z-score
1 | CC1(C)O[C@@H]2C[C@H]3[C@@H]4C[C@H](F)C5=CC(=O)C=C[C@]5(C)[C@H]4[C@@H](O)C[C@]3(C)[C@]2(C(=O)CO)O1 | 1.46
2 | CC(C)c1c(O)ccc2c1CCC1[C@@](C)(C=O)CCC[C@]21C (some centres not stated) | 0.658
3 | C/C=C(\C)C(=O)O[C@@H]1c2c(ccc3ccc(=O)oc23)OC(C)(C)[C@@H]1OC(C)=O | 0.698
4 | CC(C)CCC[C@@H](C)[C@H]1CC[C@H]2[C@@H]3C[C@@H](O)[C@@]4(O)C[C@@H](O)CC[C@]4(C)[C@H]3CC[C@]12C [CHOLESTAN-3beta,5alpha,6beta-TRIOL] | 2.91
5 | C[C@]12CCC(=O)C=C1CC[C@@H]1[C@@H]2[C@@H](O)C[C@@]2(C)[C@H]1CC[C@]2(O)C(=O)COP(=O)(O)O | -1.79
6 | CC(=O)OCC(=O)[C@@]1(O)CC[C@H]2[C@@H]3CCC4=CC(=O)C=C[C@]4(C)[C@H]3[C@@H](O)C[C@@]21C | 3.93
7 | COc1ccc(Cl)cc1C(=O)NCCc1ccc(S(=O)(=O)NC(=O)NC2CCCCC2)cc1 | 2.86
8 | CC(C)=CCC1=C(O)C(=O)c2ccccc2C1=O | 2.02
9 | CCCCCCNC(=O)n1cc(F)c(=O)[nH]c1=O | 2.53
10 | NCCC(=O)N[C@@H](Cc1c[nH]cn1)C(=O)O | 1.74
11 | CN(C(=O)CN(CCO)CC(=O)N(C)C(C)(C)Cc1ccccc1)C(C)(C)Cc1ccccc1 | 0.346
12 | CC1(C)O[C@@H]2C[C@H]3[C@@H]4C[C@H](F)C5=CC(=O)C=C[C@]5(C)[C@@]4(F)[C@@H](O)C[C@]3(C)[C@]2(C(=O)CO)O1 | -1.32
13 | CC(C)=CCc1c2c(c3occ(-c4ccc(O)c(O)c4)c(=O)c3c1O)C=CC(C)(C)O2 | 0.875
14 | COc1cc(NS(=O)(=O)c2ccc(N)cc2)ncn1 | 1.66
15 | Cc1cc(C)nc(NS(=O)(=O)c2ccc(N)cc2)n1 | 15.1
16 | O=C(O)C1=CC(=C(c2ccc(O)c(C(=O)O)c2)c2ccc(O)c(C(=O)O)c2)C=CC1=O | 1.76
17 | C[C@@H]1C/C=C/C=C/C=C/C=C/[C@H](O[C@@H]2O[C@H](C)[C@@H](O)[C@H](N)[C@@H]2O)C[C@@H]2O[C@](O)(C[C@@H](O)C[C@H]3O[C@@H]3/C=C/C(=O)O1)C[C@H](O)[C@H]2C(=O)O | 0.9
18 | NC[C@H]1O[C@H](O[C@H]2[C@H](O)[C@@H](O[C@H]3O[C@H](CO)[C@@H](O)[C@H](N)[C@H]3O)[C@H](N)C[C@@H]2N)[C@H](N)C[C@@H]1O | 15.1
19 | CCOC(=O)Nc1nc2ccccc2[nH]1 | 1.38

Row | Compound | AlphaScreen HuR-RNA complex signal Z-score
20 | COc1ccc(-c2oc3cc(OC)c(OC)c(OC)c3c(=O)c2OC)cc1OC | 2.42
21 | Cc1cc(O)c2c(c1O)C(=O)c1c(O)cc(C)c(O)c1C2=O | 2.11
22 | COc1cc(OC)c2ccc(=O)oc2c1 | 0.152
23 | CCCCC1C(=O)N(c2ccccc2)N(c2ccc(O)cc2)C1=O (configuration not stated) | 0.0088
24 | O=C(O)c1cc(=O)c(O)c2c(O)c(O)c(O)cc2c1 | 2.82
25 | COc1cc2nc(N3CCN(C(=O)C4COc5ccccc5O4)CC3)nc(N)c2cc1OC (configuration not stated) | 2.32
26 | CC(=O)Nc1ccc(OC(=O)c2ccccc2O)cc1 | 1.02
27 | COC(=O)C[C@H]1C2(C)CC34OC5(C)O[C@@]6([C@H](OC(C)=O)C(OC(C)=O)[C@]7(C)C(/C(=C(/O)C(C)C)C(=O)O[C@H]7c7ccoc7)[C@@]6(O5)[C@H](OC(C)=O)[C@@]3(O)C2OC(=O)C(C)C)[C@]14C (some centres not stated) | 0.872
28 | CC(C)(CO)[C@@H](O)C(=O)NCCC(=O)O [PANTOTHENIC ACID(d) Na salt] | 5.41
29 | Cc1cc(C(C)(C)C)cc(C)c1CC1=NCCN1 | -1.88
30 | CCN(CCCCOC(=O)c1ccc(OC)c(OC)c1)C(C)Cc1ccc(OC)cc1 (configuration not stated) | 0.906
31 | CC(=O)O[C@@H]1CC(=O)[C@@]2(C)C(CC(=O)[C@]3(C)C2CC[C@@]2(C)[C@H](c4ccoc4)OC(=O)C4OC423)C1(C)C (some centres not stated) | -1
32 | CCOC(=O)c1c(C)cc(OC)cc1O | 2.15
33 | CCN(CC)CCOCCOC(=O)C1(c2ccccc2)CCCC1 | 0.157
34 | O[C@H]1[C@H](O)[C@@H](O)C2OC[C@H]1O2 | 0.0512
35 | CCN(CC)CCNC(=O)c1ccc(N)cc1 | 8.11
36 | NC[C@H](O)c1ccc(O)c(O)c1 | 4.95
37 | O=C(Oc1cc(O)cc2c1C[C@@H](OC(=O)c1cc(O)c(O)c(O)c1)[C@@H](c1cc(O)c(O)c(O)c1)O2)c1cc(O)c(O)c(O)c1 | 0.892
38 | CCCCCCOc1ccccc1C(N)=O | 1.88

Row | Compound | AlphaScreen HuR-RNA complex signal Z-score
39 | CCN(CC)[N+]([O-])=NO | -0.792
40 | O=C(O)C1=C(CSc2nnnn2CS(=O)(=O)O)CS[C@@H]2[C@H](NC(=O)[C@H](O)c3ccccc3)C(=O)N12 | 1.11
41 | CC(C)CC(NC(=O)[C@H](C)N)C(=O)O (mixture of isomers) | 1.18
42 | COc1cc2ccc(=O)oc2c(O)c1O | 1.74
43 | Nc1ccc(S(=O)(=O)Nc2nccs2)cc1 | 23.8
44 | COC(=O)C(O)c1ccccc1 (configuration not stated) | 0.686
45 | O=C1c2ccccc2C(=O)c2c(O)c(O)cc(O)c21 | 1.7
46 | Cc1ccc(-c2cc(C(F)(F)F)nn2-c2ccc(S(N)(=O)=O)cc2)cc1 | -0.261
47 | CC(C)[N+]1(C)[C@@H]2CC[C@H]1C[C@@H](OC(=O)C(CO)c1ccccc1)C2 (some centres not stated) | -5.78
48 | C[C@@H]1CCC[C@H](C)N1NC(=O)c1ccc(Cl)c(S(N)(=O)=O)c1 | 1.2
49 | CN[C@H]1CC[C@@H](c2ccc(Cl)c(Cl)c2)c2ccccc21 | -1.58
50 | CCOC(=O)C(Cc1ccc(O)cc1)NC(C)=O (configuration not stated) | 2.05
51 | CC(=O)C1CCC2C3CC=C4CC(OS(=O)(=O)O)CCC4(C)C3CCC12C (configuration not stated) | 1.23
52 | O=C(/C=C/c1ccc(O)c(O)c1)O[C@H](Cc1ccc(O)c(O)c1)C(=O)O | 2.06
53 | COc1cc(CNC(=O)CCCC/C=C/C(C)C)ccc1O | 0.667
54 | COC(=O)c1c(OC)cc2c(c1C)Oc1c(Cl)c(O)c(Cl)c(C)c1C(=O)O2 | 2.07
55 | CO/N=C(\C(=O)N[C@@H]1C(=O)N2C(C(=O)O)=C(COC(C)=O)CS[C@H]12)c1csc(N)n1 | -3.62
56 | CC(=O)O[C@]1(C)CC[C@@]23C[C@H]1C(C)(C)[C@@H]2CC[C@H]3C | 0.582
57 | CC(=O)Nc1c(I)cc(I)c(C(=O)O)c1I | 1.31

4 records drawn at random from the list so far, as already listed:
Row | Compound | AlphaScreen HuR-RNA complex signal Z-score
56 | CC(=O)O[C@]1(C)CC[C@@]23C[C@H]1C(C)(C)[C@@H]2CC[C@H]3C | 0.582
40 | O=C(O)C1=C(CSc2nnnn2CS(=O)(=O)O)CS[C@@H]2[C@H](NC(=O)[C@H](O)c3ccccc3)C(=O)N12 | 1.11
50 | CCOC(=O)C(Cc1ccc(O)cc1)NC(C)=O (configuration not stated) | 2.05
51 | CC(=O)C1CCC2C3CC=C4CC(OS(=O)(=O)O)CCC4(C)C3CCC12C (configuration not stated) | 1.23

From the supplement of paper PMC3741180, “A Novel High Throughput Biochemical Assay to Evaluate the HuR Protein-RNA Complex Formation” (PLoS ONE, 2013)
